Screen size: about 300,000 compounds; about 5,200 (1.7%) were called active. The shares of active, inactive and inconclusive entries below differ from those in the screen.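 The calls were made as follows: active = mean replicate activation of at least 50% with a set share of replicates each reaching 50%; inconclusive = only one of those two conditions met; inactive = mean below 50% and too few replicates reaching it.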
Assay: HSF-1 activators, primary screen, NIH3T3-HGL cells, MG132 stress, luminescence, single point (AID 504408);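 also: 0% = median of the neutral control wells and 100% = twice that signal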
Settings: NIH3T3-HGL HSF-1 luciferase reporter, MG132, 8 h; at 9 µM; active compounds read high; 100% = twice DMSO control signal

Structure (SMILES) | activation
COc1cc(-c2nnc(CSc3nnc(Nc4ccc(C(C)C)cc4)s3)o2)cc(OC)c1OC | active: 55.6%
S=c1nc(SCc2ccccc2)[nH]c2ccccc12 | inconclusive: 61.4%
O=C(Nc1ccc2c(c1)C(=O)OC2)c1ccc(Cl)cc1 | inconclusive: 53.6%
C=C(C)CN(CC)c1nc(N)c2c(N)nc3c(c2c1C#N)CC(=O)N3C12CC3CC(CC(C3)C1)C2 | active: 54.7%
Cc1ccc(C(=O)N/N=C\C=C\c2ccc(Br)cc2)cn1 | inactive: -11.4%
Cc1ccccc1NCc1nc2ccccc2n1C | inconclusive: 51.1%
CCCC(C(=O)Nc1nccs1)c1ccccc1 (centres undefined) | inactive: -5.22%
O=C(OCc1nnc(-c2ccccc2)o1)c1cc(S(=O)(=O)N2CCOCC2)c(Cl)cc1Cl | inconclusive: 52%
COc1ccccc1C(=O)Nc1nnc(-c2ccco2)s1 | inconclusive: 59.4%
O=[N+]([O-])c1ccccc1NCCOc1ccccc1 | inconclusive: 53.8%
c1ccc(-c2csc(-c3ccc(-c4csnn4)cc3)n2)cc1 | inconclusive: 52.9%
Cc1cc2c(cc1C)C(c1cccc([N+](=O)[O-])c1)CC(=O)N2 (centres undefined) | active: 62.6%
Cc1ccc2nc(-c3ccc(SCC(=O)Nc4nc(C)cs4)nc3)[nH]c2c1 | inconclusive: 58.5%
CCC1Oc2ccc(C)cc2N(CC(=O)N(Cc2cccnc2)Cc2cccc(F)c2)C1=O (centres undefined) | inactive: -6.15%
Cn1c(=NC(=O)COc2ccccc2)sc2ccccc21 | inconclusive: 51.1%
Cn1nnnc1SCc1nc2ccccc2s1 | inactive: 8.36%
O=C(/C=C/c1c(Cl)cccc1Cl)Nc1ccncc1 | inconclusive: 50.4%
Cc1cc(C(=O)COC(=O)c2ccc(Br)o2)c(C)n1C | inconclusive: 50%
CC(=O)c1ccc(NCC2COc3ccccc3O2)c([N+](=O)[O-])c1 (centres undefined) | inconclusive: 53.9%
COc1cccc(-c2nn(-c3ccccc3)cc2C(=O)n2nnc3ccccc32)c1 | inconclusive: 53.5%
NS(=O)(=O)c1ccc(N=Nc2c(O)[nH]c3ccc(Br)cc23)cc1 | inconclusive: 51%
CN(C)C(=O)c1ccc(=O)n(Cc2ccc(Cl)cc2Cl)c1 | inconclusive: 50.2%
CCCc1cc(=O)n2[nH]c(-c3ccc(C)cc3)cc2n1 | inactive: 44.2%
COc1ccc(Nc2nc(Nc3ccc(OC)cc3)nc(-n3[nH]c(=O)c(C)c3C)n2)cc1 | inactive: -64.1%

Sorted by number of heavy atoms (smallest number first): part of the list above
Structure (SMILES) | activation
Cc1cc(C(=O)COC(=O)c2ccc(Br)o2)c(C)n1C | inconclusive: 50%
c1ccc(-c2csc(-c3ccc(-c4csnn4)cc3)n2)cc1 | inconclusive: 52.9%
NS(=O)(=O)c1ccc(N=Nc2c(O)[nH]c3ccc(Br)cc23)cc1 | inconclusive: 51%

Going on with the list.

Structure (SMILES) | activation
CC1CCCCN1CCCNC(=O)CCCN1C(=O)c2cccnc2Sc2ccccc21 (centres undefined) | inactive: 12.5%
COc1cccc(-c2nnn(CC(C)=O)n2)c1 | inconclusive: 50.9%
COc1ccc(CC(=O)NNS(=O)(=O)c2ccccc2[N+](=O)[O-])cc1 | inactive: -12.7%
CCn1c(SC(C)C)nnc1-c1cc(-c2ccccc2)sc1N | inconclusive: 51%
O=C1CCCC2=C1C(c1ccc(Cl)cc1)n1c(s/c(=C\c3ccc4ccncc4c3)c1=O)=N2 (centres undefined) | inconclusive: 50.3%
Cc1ccc(F)cc1NC(=O)N1CCCN(c2ccc(C(F)(F)F)cn2)CC1 | inconclusive: 51.4%
O=C(Nc1cccnc1)C1(F)C(F)(F)C(F)(F)C(F)(F)C(F)(F)C1(F)F | inconclusive: 62.8%
O=C(CCC(=O)Nc1ccc(F)cc1)N/N=C/c1c[nH]c2ccccc12 | inactive: -8.56%
Cc1ccc(C)c(C(=O)CSc2nnc(C)s2)c1 | inconclusive: 61.5%
Cc1ccc(CNc2nc3ccccc3s2)s1 | inactive: 17.4%
O=C(N/N=C/c1ccccc1Cl)c1n[nH]c2c1CCCC2 | inactive: -71.5%
CCNC(=O)NC(=O)CSc1ccc2ccccc2c1 | inconclusive: 50.5%
CN(/C(=N\S(=O)(=O)c1ccccc1)c1ccccc1)c1ccc(O)cc1 | active: 58.6%
COc1ccc(Cl)cc1N(CC(=O)Nc1ccccc1SC)S(C)(=O)=O | inconclusive: 54.8%
CCOc1ccc(C(Nc2cccnc2)c2cc(Cl)c3cccnc3c2O)cc1 (centres undefined) | inactive: -20.6%
O=C1N=C(N2CCCC2)S/C1=C\c1cccc(Br)c1 | active: 103%
CNc1c(NS(=O)(=O)c2ccc(F)c(Cl)c2)c(=O)oc2ccccc12 | inconclusive: 50%
COc1ccc(C(=O)/C(=C\c2ccco2)N2C=CC=CC2=C(C#N)C#N)cc1 | inconclusive: 65.5%
O=C(NCc1ccco1)c1ccc(-c2ccccc2Cl)o1 | inactive: 5.89%
O=C(CCc1ccccc1)N1CCN(c2ccccc2F)CC1 | inactive: 24.1%
Cc1cc(/C=C2/C(=N)N3C(=NC2=O)SN=C3S(C)(=O)=O)c(C)n1-c1ccccc1F | inactive: -23.1%
CCOC(=O)N1CCN(c2ncc(C(F)(F)F)cc2Cl)CC1 | inactive: -11.4%
CCOC(=O)c1cnc(SCc2ccc(C)cc2)nc1N | inconclusive: 52.1%
CCOc1ccc2nc(SCc3ccc(C(=O)OC)o3)[nH]c2c1 | inconclusive: 54.9%

An excerpt of these results, comma-delimited:
Structure (SMILES),activation
O=C(N/N=C/c1ccccc1Cl)c1n[nH]c2c1CCCC2,inactive: -71.5%
CCNC(=O)NC(=O)CSc1ccc2ccccc2c1,inconclusive: 50.5%
CN(/C(=N\S(=O)(=O)c1ccccc1)c1ccccc1)c1ccc(O)cc1,active: 58.6%
COc1ccc(Cl)cc1N(CC(=O)Nc1ccccc1SC)S(C)(=O)=O,inconclusive: 54.8%
CCOc1ccc(C(Nc2cccnc2)c2cc(Cl)c3cccnc3c2O)cc1 (centres undefined),inactive: -20.6%
O=C1N=C(N2CCCC2)S/C1=C\c1cccc(Br)c1,active: 103%

(list continues)

Structure (SMILES) | activation
Fc1cc(NCc2ccccc2)nc(NCc2ccccc2)n1 | inconclusive: 51.4%
OC(Cc1nc2ccccc2[nH]1)c1ccccc1Cl (centres undefined) | inconclusive: 51.5%
O=C(CSc1nn(-c2ccc(F)cc2)c(=S)s1)N1CCN(C(=O)c2ccco2)CC1 | inconclusive: 61.3%
Cc1ccc(C(=O)NC(=S)NCC2CCCO2)cc1Br (centres undefined) | inconclusive: 50.8%
O=C(Nc1ccc2c(c1)OCO2)C1CC(c2cccc(Br)c2)=NO1 (centres undefined) | inactive: -1.29%
O=c1/c(=C\c2ccc(F)cc2)sc2n1CCCN=2 | inconclusive: 55%
O=C(COC(=O)c1ccccc1C(=O)c1ccc(Cl)c([N+](=O)[O-])c1)NC1CC1 | inconclusive: 69.9%
Cc1cccc2[nH]c(CN(C)C(=O)CC3C(=O)NCCN3CC(C)(C)C)nc12 (centres undefined) | inactive: 1.45%
COc1cc(/C=C/C(=O)c2ccc(NS(=O)(=O)c3ccc(C)cc3)cc2)cc(OC)c1O | inconclusive: 50.1%
O=C(CSc1ccncc1)Nc1ccc2ccccc2c1 | inactive: 1.06%
Cc1ccc(N2C(=O)CCC2(C#N)c2ccccc2)cc1 (centres undefined) | inconclusive: 51.6%
Cn1c(COc2ccc(F)cc2)nc2ccccc21 | inconclusive: 53.2%
Cc1cc(N2CCCCC2)nc2c(C)cccc12 | inactive: -5%
Cc1ccccc1Nc1nc(N)nc(CSc2n[nH]c(N)n2)n1 | inconclusive: 52.8%
O=c1c(Cl)cc(Cl)nn1-c1ccccc1 | inconclusive: 58.7%
NNC(=O)c1ccc(Cn2cc(Br)cn2)o1 | inactive: 8.5%
O=S(Cc1cc(Sc2ccccc2)nc(-c2ccccc2)n1)c1ccccc1 (centres undefined) | inconclusive: 50.1%
O=C(NCCSCc1ccco1)Nc1cccc(Cl)c1 | active: 60.3%
CCCn1cc(SCC(=O)Nc2nnc(C)s2)c2ccccc21 | inactive: -17%
O=C(Nc1ccccc1)Nc1cccc2nsnc12 | inconclusive: 50.3%
CNC(=S)Nc1ccc(OCc2ccccc2)cc1 | inactive: 18%
CC1=Nc2cc(C(=O)N3CCCC3)ccc2Sc2c(C)ccc(C)c21 | inconclusive: 51.6%
NC(=O)C1CCN(C(=O)CC2(CC(=O)O)CCCC2)CC1 | inactive: 2.61%
O=C(CSc1nnc(-c2ccco2)n1Cc1ccccc1)OC1CCCCC1 | active: 78.7%

Structure (SMILES) | activation
COc1ccc(Br)cc1CNC(=O)Nc1cccs1 | inconclusive: 50.4%
Cc1ccccc1NC(=O)CCc1c(C)nn(-c2ccc(N3CCCCC3)nn2)c1C | inconclusive: 50.4%
CC(=O)c1sc(NC(=O)c2ccc(C)cc2)nc1C | inconclusive: 50%
Cc1ccc2nc(SCC(=O)c3ccc(O)cc3O)[nH]c2c1 | inactive: 23.1%
Fc1ccc(-c2nnc3ccc(N4CCc5ccccc5C4)nn23)cc1 | active: 79.6%
COc1ccc(NC(=O)c2ccc(NCC3CCCO3)c([N+](=O)[O-])c2)cc1 (centres undefined) | inactive: 10%
CCN(CC)C(=O)c1sc2nc(-c3ccccc3)ccc2c1N | inconclusive: 55.5%
O=C1C2C3C=CC(C4CC34)C2C(=O)N1/N=C/c1ccc(-c2ccc(Cl)cc2[N+](=O)[O-])o1 (centres undefined) | inactive: 24.8%
Cn1c2ccccc2c(=O)c2c(=O)n(-c3ccc(F)cc3)c(-c3cccs3)nc21 | inactive: 3.76%
Cc1ccc(NC(=O)Nc2ccc(Cl)c(Cl)c2)nc1 | active: 53.5%
Cc1nn(-c2nc3ccccc3s2)c(C)c1Oc1ccccc1O | inconclusive: 60.6%
O=C(CCCCCN1C(=O)c2ccccc2C1=O)Nc1ccc(C(=O)O)cc1 | active: 63.2%
Cc1onc(-c2ccccc2)c1C(=O)O/N=C(\N)c1ccc([N+](=O)[O-])o1 | inconclusive: 53.5%
CCOC(=O)N1CCN(C(=O)c2cnc3n(c2=O)CCS3)CC1 | inconclusive: 50.8%
Cc1cc(C)c2oc(-c3ccc(C)c(NC(=S)NC(=O)/C=C/c4ccco4)c3)nc2c1 | inconclusive: 53%
CCOC(=O)c1c(CSc2ccccc2)n(C)c2cc(Br)c(O)c(CN(C)C)c12 | inactive: 35.6%
Cn1c(CN2CCN(C(=O)c3ccc(F)cc3)CC2)nc2cc([N+](=O)[O-])ccc21 | inconclusive: 56.8%
COc1ccc2nc3ccccc3nc2c1N | inconclusive: 51.3%
Fc1ccccc1NC(=S)N1CCN(c2ccccn2)CC1 | inconclusive: 54.9%
CCOc1ccc(S(=O)(=O)NCc2ccncc2)cc1NC(=O)c1ccccc1 | inactive: 4.94%
Cc1ccc(-c2nn(-c3ccccc3)cc2C(=O)N2CCN(c3ccccn3)CC2)cc1 | inactive: 9.29%
Cc1ccc(-c2nc(CSCC(=O)N3CCOCC3)c(C)o2)cc1 | inactive: 31.5%

Source: PubChem BioAssay AID504408 (Broad Institute, 2011)
